Binding data for two molecules are collected here from publication PMC12339988.

Protein sequences, listed by entry. Tags and fused reporters are not part of them.
UniProt P33993: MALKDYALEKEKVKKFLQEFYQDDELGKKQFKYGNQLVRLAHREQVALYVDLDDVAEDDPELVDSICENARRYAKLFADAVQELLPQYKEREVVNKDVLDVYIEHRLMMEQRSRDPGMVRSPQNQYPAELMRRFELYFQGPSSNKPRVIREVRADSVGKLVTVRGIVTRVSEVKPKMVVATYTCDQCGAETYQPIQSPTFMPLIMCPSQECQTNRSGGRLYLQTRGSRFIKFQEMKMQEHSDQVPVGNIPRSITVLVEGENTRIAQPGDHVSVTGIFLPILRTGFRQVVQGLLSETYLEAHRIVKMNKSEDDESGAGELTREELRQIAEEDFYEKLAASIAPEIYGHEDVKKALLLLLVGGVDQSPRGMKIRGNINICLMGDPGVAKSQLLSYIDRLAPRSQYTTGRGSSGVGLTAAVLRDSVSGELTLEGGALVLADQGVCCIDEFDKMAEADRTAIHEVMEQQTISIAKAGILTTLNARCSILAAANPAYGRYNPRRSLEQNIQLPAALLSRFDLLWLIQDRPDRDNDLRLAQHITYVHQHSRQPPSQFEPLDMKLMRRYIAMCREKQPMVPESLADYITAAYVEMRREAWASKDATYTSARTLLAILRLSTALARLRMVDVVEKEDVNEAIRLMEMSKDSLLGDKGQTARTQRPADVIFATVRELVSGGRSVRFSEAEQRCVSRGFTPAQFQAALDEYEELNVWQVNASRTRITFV

In test [1] the target is T1, SHCBP1, endogenous (human (endogenous in HepG2 and HL7702)) (UniProt Q8NEM2).
T1 sequence: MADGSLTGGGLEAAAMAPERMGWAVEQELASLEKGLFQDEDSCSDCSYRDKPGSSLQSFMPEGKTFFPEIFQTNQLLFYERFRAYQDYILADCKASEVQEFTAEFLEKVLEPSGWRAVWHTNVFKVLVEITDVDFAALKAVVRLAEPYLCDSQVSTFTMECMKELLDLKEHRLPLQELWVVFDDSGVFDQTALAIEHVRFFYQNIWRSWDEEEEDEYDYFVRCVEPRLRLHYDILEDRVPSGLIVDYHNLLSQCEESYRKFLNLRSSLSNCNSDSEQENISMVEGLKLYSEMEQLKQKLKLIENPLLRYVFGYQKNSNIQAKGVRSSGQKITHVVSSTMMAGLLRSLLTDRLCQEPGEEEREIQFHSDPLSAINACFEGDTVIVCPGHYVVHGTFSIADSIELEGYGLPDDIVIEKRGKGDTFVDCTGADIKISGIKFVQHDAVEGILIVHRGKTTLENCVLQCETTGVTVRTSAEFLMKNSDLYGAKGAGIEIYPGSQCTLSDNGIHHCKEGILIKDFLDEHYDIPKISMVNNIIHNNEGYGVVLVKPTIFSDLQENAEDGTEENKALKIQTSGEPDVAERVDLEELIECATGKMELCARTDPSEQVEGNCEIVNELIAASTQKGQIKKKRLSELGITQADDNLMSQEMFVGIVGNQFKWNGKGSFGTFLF
Briefly: affinity purification with mass spectrometry; anti-SHCBP1 antibody on lysate of a hepatocyte cell line; same protocol as the anti-MCM7 IP-MS.

Test [2] addresses MCM7 expressed from pHAGE-MCM7 in stable HL7702 cells (UniProt P33993). Briefly: affinity purification with mass spectrometry; anti-MCM7 antibody and protein A/G-agarose beads on lysate of stable HL7702 cells expressing MCM7 (pHAGE-MCM7); overnight at 4 °C; IgG control; gel digested, LC-MS/MS.

These are yes or no findings as the source states them, for the method shown. Binding seen in cells or lysates may run through a third protein. A yes stands for co-enrichment or nearness to the bait. Other partners may have been found.

B1: RACGAP1, endogenous (protein, UniProt Q9H0H5 1-632)
chain: MDTMMLNVRNLFEQLVRRVEILSEGNEVQFIQLAKDFEDFRKKWQRTDHELGKYKDLLMKAETERSALDVKLKHARNQVDVEIKRRQRAEADCEKLERQIQLIREMLMCDTSGSIQLSEEQKSALAFLNRGQPSSSNAGNKRLSTIDESGSILSDISFDKTDESLDWDSSLVKTFKLKKREKRRSTSRQFVDGPPGPVKKTRSIGSAVDQGNESIVAKTTVTVPNDGGPIEAVSTIETVPYWTRSRRKTGTLQPWNSDSTLNSRQLEPRTETDSVGTPQSNGGMRLHDFVSKTVIKPESCVPCGKRIKFGKLSLKCRDCRVVSHPECRDRCPLPCIPTLIGTPVKIGEGMLADFVSQTSPMIPSIVVHCVNEIEQRGLTETGLYRISGCDRTVKELKEKFLRVKTVPLLSKVDDIHAICSLLKDFLRNLKEPLLTFRLNRAFMEAAEITDEDNSIAAMYQAVGELPQANRDTLAFLMIHLQRVAQSPHTKMDVANLAKVFGPTIVAHAVPNPDPVTMLQDIKRQPKVVERLLSLPLEYWSQFMMVEQENIDPLHVIENSNAFSTPQTPDIKVSLLGPVTTPEHQLLKTPSSSSLSQRVRSTLTKNTPRFGSKSKSATNLGRQGNFFASPMLK
With B1, the binding result in test [1] is on record as “binds”.

B2: SHCBP1, endogenous (protein, UniProt Q8NEM2 1-672)
chain: MADGSLTGGGLEAAAMAPERMGWAVEQELASLEKGLFQDEDSCSDCSYRDKPGSSLQSFMPEGKTFFPEIFQTNQLLFYERFRAYQDYILADCKASEVQEFTAEFLEKVLEPSGWRAVWHTNVFKVLVEITDVDFAALKAVVRLAEPYLCDSQVSTFTMECMKELLDLKEHRLPLQELWVVFDDSGVFDQTALAIEHVRFFYQNIWRSWDEEEEDEYDYFVRCVEPRLRLHYDILEDRVPSGLIVDYHNLLSQCEESYRKFLNLRSSLSNCNSDSEQENISMVEGLKLYSEMEQLKQKLKLIENPLLRYVFGYQKNSNIQAKGVRSSGQKITHVVSSTMMAGLLRSLLTDRLCQEPGEEEREIQFHSDPLSAINACFEGDTVIVCPGHYVVHGTFSIADSIELEGYGLPDDIVIEKRGKGDTFVDCTGADIKISGIKFVQHDAVEGILIVHRGKTTLENCVLQCETTGVTVRTSAEFLMKNSDLYGAKGAGIEIYPGSQCTLSDNGIHHCKEGILIKDFLDEHYDIPKISMVNNIIHNNEGYGVVLVKPTIFSDLQENAEDGTEENKALKIQTSGEPDVAERVDLEELIECATGKMELCARTDPSEQVEGNCEIVNELIAASTQKGQIKKKRLSELGITQADDNLMSQEMFVGIVGNQFKWNGKGSFGTFLF
As for B2, the binding entry in test [2] was “binds”.
